Source: the supplement of paper PMC11006884
The entries are a selection whose mix differs from that of the whole data set.

By UniProt entry, the sequences of proteins in these tests, tags left out. Where a name states a change or a piece, a line headed by the entry shows the natural chain unless it says otherwise.
UniProt Q9Y490: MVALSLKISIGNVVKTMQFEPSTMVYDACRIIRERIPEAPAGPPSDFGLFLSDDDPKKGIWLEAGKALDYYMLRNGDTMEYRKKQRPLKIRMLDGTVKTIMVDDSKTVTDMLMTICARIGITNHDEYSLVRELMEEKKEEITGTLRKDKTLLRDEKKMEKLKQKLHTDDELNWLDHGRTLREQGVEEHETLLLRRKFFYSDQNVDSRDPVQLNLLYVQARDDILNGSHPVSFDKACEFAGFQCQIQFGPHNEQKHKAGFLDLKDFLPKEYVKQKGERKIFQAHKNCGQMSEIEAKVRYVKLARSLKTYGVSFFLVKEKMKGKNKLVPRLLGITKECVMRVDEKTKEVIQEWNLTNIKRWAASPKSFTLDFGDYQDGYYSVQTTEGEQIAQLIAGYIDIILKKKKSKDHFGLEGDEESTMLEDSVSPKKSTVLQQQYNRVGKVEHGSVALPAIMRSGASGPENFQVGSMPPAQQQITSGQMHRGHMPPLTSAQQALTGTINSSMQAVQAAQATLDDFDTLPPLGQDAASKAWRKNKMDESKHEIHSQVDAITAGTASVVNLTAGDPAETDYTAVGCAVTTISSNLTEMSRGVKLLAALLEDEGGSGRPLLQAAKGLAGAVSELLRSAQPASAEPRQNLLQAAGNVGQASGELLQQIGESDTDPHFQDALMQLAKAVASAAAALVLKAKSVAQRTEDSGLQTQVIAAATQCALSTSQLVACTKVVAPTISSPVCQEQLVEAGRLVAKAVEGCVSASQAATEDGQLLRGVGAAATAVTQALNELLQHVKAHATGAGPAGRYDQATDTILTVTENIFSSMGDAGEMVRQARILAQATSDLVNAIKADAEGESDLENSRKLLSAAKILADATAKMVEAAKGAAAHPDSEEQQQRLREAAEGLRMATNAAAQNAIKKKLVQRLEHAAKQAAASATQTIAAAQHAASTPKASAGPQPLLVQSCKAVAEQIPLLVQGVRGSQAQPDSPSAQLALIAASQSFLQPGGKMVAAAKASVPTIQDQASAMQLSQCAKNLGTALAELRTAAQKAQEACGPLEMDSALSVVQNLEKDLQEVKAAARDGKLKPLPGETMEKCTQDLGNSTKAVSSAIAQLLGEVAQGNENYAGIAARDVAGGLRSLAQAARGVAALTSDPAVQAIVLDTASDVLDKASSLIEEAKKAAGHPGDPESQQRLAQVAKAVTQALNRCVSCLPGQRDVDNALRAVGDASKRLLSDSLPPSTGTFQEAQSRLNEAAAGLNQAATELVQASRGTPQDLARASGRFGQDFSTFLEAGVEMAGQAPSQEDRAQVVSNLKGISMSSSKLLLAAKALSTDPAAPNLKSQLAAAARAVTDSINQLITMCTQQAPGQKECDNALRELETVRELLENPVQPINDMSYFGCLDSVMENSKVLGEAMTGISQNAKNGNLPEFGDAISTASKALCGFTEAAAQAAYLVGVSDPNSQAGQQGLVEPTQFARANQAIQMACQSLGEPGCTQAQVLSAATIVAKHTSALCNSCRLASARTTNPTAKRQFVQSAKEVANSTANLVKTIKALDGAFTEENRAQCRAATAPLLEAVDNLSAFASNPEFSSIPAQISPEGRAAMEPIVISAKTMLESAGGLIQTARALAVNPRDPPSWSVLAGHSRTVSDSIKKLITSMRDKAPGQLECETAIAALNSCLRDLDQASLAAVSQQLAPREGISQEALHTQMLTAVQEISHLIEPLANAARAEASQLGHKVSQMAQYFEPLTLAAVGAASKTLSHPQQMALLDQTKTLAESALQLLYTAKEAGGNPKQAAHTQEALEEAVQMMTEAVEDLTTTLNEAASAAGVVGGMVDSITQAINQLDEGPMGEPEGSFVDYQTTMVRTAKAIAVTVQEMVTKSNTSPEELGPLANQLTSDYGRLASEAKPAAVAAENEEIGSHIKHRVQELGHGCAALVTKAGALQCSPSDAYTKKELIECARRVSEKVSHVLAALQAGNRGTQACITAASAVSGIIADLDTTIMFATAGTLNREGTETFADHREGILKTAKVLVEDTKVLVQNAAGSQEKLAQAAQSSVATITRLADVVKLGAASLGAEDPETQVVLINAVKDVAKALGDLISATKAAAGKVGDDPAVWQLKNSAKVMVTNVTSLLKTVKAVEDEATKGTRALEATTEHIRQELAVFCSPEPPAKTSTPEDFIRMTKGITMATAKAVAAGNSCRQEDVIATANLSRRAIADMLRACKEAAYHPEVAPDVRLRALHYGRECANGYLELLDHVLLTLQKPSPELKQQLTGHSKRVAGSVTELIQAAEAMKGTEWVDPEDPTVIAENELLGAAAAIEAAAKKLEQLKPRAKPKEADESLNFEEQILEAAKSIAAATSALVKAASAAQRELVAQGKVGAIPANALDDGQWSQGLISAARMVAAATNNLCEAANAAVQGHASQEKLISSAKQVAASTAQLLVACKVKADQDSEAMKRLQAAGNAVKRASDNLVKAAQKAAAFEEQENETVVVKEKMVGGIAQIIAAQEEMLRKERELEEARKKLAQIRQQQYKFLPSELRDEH
UniProt Q9Y570: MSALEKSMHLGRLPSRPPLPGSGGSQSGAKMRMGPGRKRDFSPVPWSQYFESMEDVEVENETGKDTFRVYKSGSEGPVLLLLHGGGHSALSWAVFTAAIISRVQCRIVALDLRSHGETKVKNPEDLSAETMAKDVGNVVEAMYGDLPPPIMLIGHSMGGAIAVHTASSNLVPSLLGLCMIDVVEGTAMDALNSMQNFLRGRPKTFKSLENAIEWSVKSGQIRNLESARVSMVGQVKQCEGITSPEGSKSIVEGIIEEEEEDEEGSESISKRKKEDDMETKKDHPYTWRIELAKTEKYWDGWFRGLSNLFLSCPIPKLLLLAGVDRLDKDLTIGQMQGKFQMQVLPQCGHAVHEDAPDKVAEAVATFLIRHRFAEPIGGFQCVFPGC
UniProt Q9Y5R8, whole entry: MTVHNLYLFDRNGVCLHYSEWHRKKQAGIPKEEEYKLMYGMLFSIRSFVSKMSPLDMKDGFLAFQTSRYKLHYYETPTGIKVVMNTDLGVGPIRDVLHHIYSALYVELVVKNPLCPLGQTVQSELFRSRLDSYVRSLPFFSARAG
UniProt Q9Y5Q3: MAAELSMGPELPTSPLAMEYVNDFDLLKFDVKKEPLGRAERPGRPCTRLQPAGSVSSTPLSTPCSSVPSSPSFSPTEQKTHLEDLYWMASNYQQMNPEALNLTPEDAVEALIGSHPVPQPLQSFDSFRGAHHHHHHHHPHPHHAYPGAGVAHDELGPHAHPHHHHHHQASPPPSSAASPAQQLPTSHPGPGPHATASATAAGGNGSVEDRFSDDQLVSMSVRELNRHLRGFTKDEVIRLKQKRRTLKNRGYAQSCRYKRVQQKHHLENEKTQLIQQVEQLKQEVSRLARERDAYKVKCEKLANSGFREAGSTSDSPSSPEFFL
UniProt Q9Y4P3: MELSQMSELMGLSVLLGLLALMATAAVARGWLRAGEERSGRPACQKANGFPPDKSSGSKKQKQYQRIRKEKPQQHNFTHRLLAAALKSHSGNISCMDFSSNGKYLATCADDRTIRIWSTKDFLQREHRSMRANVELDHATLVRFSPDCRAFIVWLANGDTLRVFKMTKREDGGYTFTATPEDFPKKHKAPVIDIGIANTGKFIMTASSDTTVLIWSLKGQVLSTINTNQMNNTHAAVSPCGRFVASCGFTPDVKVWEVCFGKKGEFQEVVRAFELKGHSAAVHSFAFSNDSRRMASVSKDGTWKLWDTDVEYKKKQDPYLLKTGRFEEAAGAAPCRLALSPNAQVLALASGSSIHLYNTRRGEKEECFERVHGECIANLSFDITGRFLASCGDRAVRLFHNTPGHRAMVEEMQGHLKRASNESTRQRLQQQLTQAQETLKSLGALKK
UniProt Q9Y4W6: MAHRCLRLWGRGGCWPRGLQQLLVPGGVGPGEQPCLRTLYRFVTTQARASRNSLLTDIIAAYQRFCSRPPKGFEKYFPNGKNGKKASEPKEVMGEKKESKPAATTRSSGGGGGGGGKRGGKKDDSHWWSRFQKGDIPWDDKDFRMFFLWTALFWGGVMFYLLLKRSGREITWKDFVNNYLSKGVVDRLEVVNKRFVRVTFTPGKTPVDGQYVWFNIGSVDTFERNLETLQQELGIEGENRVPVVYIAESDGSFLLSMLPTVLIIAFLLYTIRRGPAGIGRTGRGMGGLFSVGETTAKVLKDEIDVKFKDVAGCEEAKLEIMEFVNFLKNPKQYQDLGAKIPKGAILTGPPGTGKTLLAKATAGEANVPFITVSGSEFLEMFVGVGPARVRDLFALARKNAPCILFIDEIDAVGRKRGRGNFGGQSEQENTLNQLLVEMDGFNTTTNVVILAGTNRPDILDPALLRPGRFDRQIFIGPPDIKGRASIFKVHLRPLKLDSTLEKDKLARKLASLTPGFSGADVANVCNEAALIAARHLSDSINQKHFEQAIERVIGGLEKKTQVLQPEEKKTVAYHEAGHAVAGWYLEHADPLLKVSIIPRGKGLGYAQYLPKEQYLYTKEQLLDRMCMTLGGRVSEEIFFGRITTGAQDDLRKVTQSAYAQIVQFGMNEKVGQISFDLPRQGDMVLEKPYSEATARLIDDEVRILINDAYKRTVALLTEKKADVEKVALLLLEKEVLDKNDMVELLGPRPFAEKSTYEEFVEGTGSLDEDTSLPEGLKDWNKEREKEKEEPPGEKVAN
UniProt Q9Y6B6: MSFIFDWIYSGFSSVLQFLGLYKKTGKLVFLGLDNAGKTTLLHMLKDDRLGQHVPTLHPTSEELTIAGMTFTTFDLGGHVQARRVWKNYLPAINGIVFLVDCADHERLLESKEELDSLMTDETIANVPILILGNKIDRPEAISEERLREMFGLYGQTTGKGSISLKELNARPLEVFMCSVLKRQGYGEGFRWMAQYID
UniProt Q9Y4W2: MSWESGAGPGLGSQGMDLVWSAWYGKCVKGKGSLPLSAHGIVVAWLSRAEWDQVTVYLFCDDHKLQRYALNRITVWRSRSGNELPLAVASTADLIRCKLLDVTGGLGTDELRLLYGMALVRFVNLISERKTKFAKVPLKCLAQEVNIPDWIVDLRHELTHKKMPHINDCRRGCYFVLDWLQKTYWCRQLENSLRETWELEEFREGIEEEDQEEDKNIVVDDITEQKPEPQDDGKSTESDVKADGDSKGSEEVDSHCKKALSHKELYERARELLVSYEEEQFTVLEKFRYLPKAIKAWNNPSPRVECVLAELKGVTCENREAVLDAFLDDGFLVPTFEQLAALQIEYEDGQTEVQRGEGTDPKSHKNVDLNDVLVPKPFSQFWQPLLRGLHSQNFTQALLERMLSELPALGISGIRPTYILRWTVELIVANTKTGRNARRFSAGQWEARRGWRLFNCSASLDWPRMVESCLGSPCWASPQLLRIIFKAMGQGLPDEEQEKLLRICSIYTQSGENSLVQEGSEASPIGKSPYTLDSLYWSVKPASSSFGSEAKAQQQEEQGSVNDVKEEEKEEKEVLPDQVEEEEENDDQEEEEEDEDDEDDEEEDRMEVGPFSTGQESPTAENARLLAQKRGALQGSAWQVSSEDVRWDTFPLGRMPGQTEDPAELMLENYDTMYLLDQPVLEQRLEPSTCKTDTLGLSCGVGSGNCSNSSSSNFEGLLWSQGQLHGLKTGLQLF
UniProt Q9Y6Y8: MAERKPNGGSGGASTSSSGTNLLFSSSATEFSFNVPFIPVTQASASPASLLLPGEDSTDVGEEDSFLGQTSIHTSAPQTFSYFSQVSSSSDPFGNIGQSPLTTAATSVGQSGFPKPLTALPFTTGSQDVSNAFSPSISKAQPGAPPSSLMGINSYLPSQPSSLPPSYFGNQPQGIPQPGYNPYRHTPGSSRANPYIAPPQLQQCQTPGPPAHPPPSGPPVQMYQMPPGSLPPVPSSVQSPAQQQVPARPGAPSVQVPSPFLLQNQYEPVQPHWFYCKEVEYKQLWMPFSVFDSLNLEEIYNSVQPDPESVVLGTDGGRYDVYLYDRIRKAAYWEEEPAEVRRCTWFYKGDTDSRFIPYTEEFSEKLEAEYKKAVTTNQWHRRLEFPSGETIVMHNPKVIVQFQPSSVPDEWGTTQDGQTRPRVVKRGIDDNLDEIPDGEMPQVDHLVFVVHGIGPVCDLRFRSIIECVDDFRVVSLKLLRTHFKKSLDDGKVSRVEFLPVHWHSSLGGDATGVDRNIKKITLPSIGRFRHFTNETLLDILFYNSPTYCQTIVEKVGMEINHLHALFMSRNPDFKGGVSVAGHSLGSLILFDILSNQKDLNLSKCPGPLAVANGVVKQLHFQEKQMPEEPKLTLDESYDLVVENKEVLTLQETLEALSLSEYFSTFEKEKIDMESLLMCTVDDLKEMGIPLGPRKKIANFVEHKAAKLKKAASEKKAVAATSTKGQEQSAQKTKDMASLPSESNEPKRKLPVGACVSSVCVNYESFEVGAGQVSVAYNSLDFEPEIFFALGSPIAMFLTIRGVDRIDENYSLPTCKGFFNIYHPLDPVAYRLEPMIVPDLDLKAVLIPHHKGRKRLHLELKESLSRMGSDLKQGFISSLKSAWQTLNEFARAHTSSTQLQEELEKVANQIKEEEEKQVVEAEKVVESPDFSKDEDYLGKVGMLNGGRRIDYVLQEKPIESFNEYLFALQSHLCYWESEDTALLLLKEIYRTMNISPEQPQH

These targets were tested with COC(=O)C#Cc1ccccc1 [methyl 3-phenylpropiolate] (assay: log2 ratio of iodoacetamide-alkyne labeling of the cysteine site, DMSO over compound (competition); higher = stronger covalent engagement of the cysteine by the compound, active = 1 or more). Settings: 500 µM; treatment time 1 h; system: HEK293T cell lysate.
Summary of the method: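 HEK293T lysate at 2 mg/mL was treated with vehicle or electrophile (500 µM) for 1 h at ambient temperature, then labelled with iodoacetamide alkyne (1 h), clicked to sCIP-TMT reagents, pooled, digested with trypsin overnight at 37 °C, enriched on streptavidin and eluted with acid. Peptides were analysed by Orbitrap Eclipse LC-MS/MS with FAIMS and quantified in FragPipe, using duplicate channels and three replicates, with cysteines quantified in only one replicate excluded. The log2 competition ratio for each cysteine is the mean control-channel reporter intensity divided by the mean compound-channel reporter intensity.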

Target | log2 ratio of iodoacetamide-alkyne labeling
TLN1 C1939 (UniProt Q9Y490) | inactive: 0.202
PPME1 C386 (UniProt Q9Y570) | active: 1.48
UniProt Q9Y5J5_C87 | inactive: 0.486
KIF3A C621 (UniProt Q9Y496) | inactive: 0.962
NUBP2 C54 (UniProt Q9Y5Y2) | inactive: 0.284
GMPPB C245 (UniProt Q9Y5P6) | inactive: 0.331
TRAPPC1 C115 (UniProt Q9Y5R8) | inactive: 0.0989
TEX264 C165 (UniProt Q9Y6I9) | inactive: 0.476
MORC2 C962 (UniProt Q9Y6X9) | inactive: 0.1
UniProt Q9Y5Q3_C64 | inactive: 0.299
TCAF1 C144 (UniProt Q9Y4C2) | inactive: 0.315
FAM169A C138 (UniProt Q9Y6X4) | inactive: 0.201
TLN1 C1045 (UniProt Q9Y490) | inactive: 0.0256
TBL2 C335 (UniProt Q9Y4P3) | inactive: 0.9
TCAF1 C487 (UniProt Q9Y4C2) | inactive: 0.36
IVNS1ABP C274 (UniProt Q9Y6Y0) | inactive: 0.419
UniProt Q9Y6E0_C415 | inactive: 0.286
AFG3L2 C525 (UniProt Q9Y4W6) | inactive: 0.198
TLN1 C1558 (UniProt Q9Y490) | inactive: 0.288
SAR1B C102 (UniProt Q9Y6B6) | inactive: -0.266
UniProt Q9Y4B6_C1070 | inactive: 0.183
TLN1 C956 (UniProt Q9Y490) | inactive: 0.185
LAS1L C504 (UniProt Q9Y4W2) | inactive: 0.286
USP16 C631 (UniProt Q9Y5T5) | inactive: 0.617
TLN1 C732 (UniProt Q9Y490) | inactive: 0.177
UniProt Q9Y6E0_C394 | inactive: 0.37
RAD54B C63 (UniProt Q9Y620) | inactive: 0.651
SEC23IP C457 (UniProt Q9Y6Y8) | inactive: 0.296
CEP170B C1570 (UniProt Q9Y4F5) | inactive: 0.401
IKBKG C347 (UniProt Q9Y6K9) | inactive: 0.397
